Source: PubChem BioAssay AID1347431 (National Center for Advancing Translational Sciences (NCATS), 2020)
The whole screen tested about 1,200 compounds, of which fewer than 10 were called active. Calls come from the whole dose curve; as a rule, active = well fitted curve in the direction sought with a large enough effect; inconclusive = small, poorly fitted or top-dose-only effect, or another doubt; inactive = no such curve, though single readings can be large or run the other way. Some of the results follow.

Assay: Confirmatory qHTS assay for inhibitors of Activation Induced Cytidine Deaminase (AID): UDG signals; note: 0% is about no effect
Settings: UDG coupled enzyme activity counter-screen; at 115 µM (top of the series) unless noted
In short: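 Fluorescence at 560 nm excitation/665 nm emission reports UDG activity, read after NaOH quench of a 4 h room-temperature reaction of DJC20/DJC23 substrates with AID (1 uM, 4/3x) and UDG (2 U/mL, 4/3x); compounds at 7.32 nM - 114 uM final, preincubated 10 min.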

**Q.** Which activity change, negative = inhibition does the source give for `COc1cc2cc(CNc3ccccc3)c(=O)n(CC(=O)Nc3cc(C)cc(C)c3)c2cc1OC` here?
**A.** inactive: -5.45%

**Q.** Which activity change, negative = inhibition does the source give for `CCCCN(CC)CCNC(=O)C1CCN(c2nnc(C)c3c(C)n(-c4ccc(C)cc4)nc23)CC1` here?
**A.** inactive: -1.82%

**Q.** Which activity change, negative = inhibition does the source give for `CCN(CCCNC(=O)c1cc2c(=O)[nH]c3ccc(C)cc3c2s1)Cc1ccccc1` here?
**A.** inactive: 2.74%

**Q.** Which activity change, negative = inhibition does the source give for `COc1cccc(N2CCN(c3ncc4c(n3)CCN(Cc3ccc(Br)cc3)C4)CC2)c1` here?
**A.** inactive: -2.96%

**Q.** For `CCCCN(C)CC(O)Cn1cc(/C=C/C(=O)c2ccc(OCC)cc2)c2ccccc21` (stereo unspecified), which activity change, negative = inhibition is on record?
**A.** inactive: -1.14%

**Q.** With `CCOC(=O)C1=C(CN(C)Cc2ccccc2)NC(=O)NC1c1ccc(OC(C)C)cc1` (stereo unspecified) as the molecule, how does the activity change, negative = inhibition read?
**A.** inactive: -9.28%

**Q.** Which activity change, negative = inhibition does the source give for `CCc1ccc(C(=O)c2cn(Cc3ccccc3)c3cc(OC)c(OC)cc3c2=O)cc1` here?
**A.** inactive: -0.871%

**Q.** With `Cc1c(NC(=O)c2ccc(-c3ccc(F)cc3)o2)cccc1-c1nc2ncccc2o1` as the molecule, how does the activity change, negative = inhibition read?
**A.** inactive: 0.635%

**Q.** Which activity change, negative = inhibition does the source give for `Cc1ccc(S(=O)(=O)Nc2nc3n(n2)C(c2ccc(Cl)cc2)C=C(c2ccccc2)N3)cc1` (stereo unspecified) here?
**A.** inactive: -1.07%

**Q.** With `Cc1ccc(CCNC(=O)c2ccc(CSc3nc4ccncc4n3Cc3ccc(F)cc3)cc2)cc1` as the molecule, how does the activity change, negative = inhibition read?
**A.** inactive: -1.17%

**Q.** For `Cc1ccc(Cl)cc1N1CCN(C(=O)c2cc(S(=O)(=O)N3CCCCC3)cn2C)CC1`, which activity change, negative = inhibition is on record?
**A.** inactive: 0.844%

**Q.** For `Cc1ccc2ccc3cc(C(=O)Nc4ccc(C)c(F)c4)nc3c2[nH]1`, which activity change, negative = inhibition is on record?
**A.** inactive: 3.18%

**Q.** With `CCc1ccc(CN(Cc2ccco2)C(=O)c2ccc(C)cc2)cc1` as the molecule, how does the activity change, negative = inhibition read?
**A.** inactive: -7.11%

**Q.** For `Cn1c(=O)c2c(-c3ccccc3Br)n(Cc3ccccc3)cc2n(C)c1=O`, which activity change, negative = inhibition is on record?
**A.** inactive: -1.16%

**Q.** Which activity change, negative = inhibition does the source give for `O=C(NCCCN1CCCCC1)c1ccc2c(c1)sc1nc(-c3ccc(F)cc3)cn12` here?
**A.** inactive: 2.98%

**Q.** Which activity change, negative = inhibition does the source give for `Cc1ccccc1NC(=O)c1c(NC(=O)C(F)(F)F)sc2c1CCCCC2` here?
**A.** inactive: 6.21%

**Q.** For `CCCN(C(=O)c1sc2nc3n(c(=O)c2c1C)CCCC3)c1ccccc1C`, which activity change, negative = inhibition is on record?
**A.** inactive: -5.5%

**Q.** For `CCOC(=O)c1c(C)oc2nc(C)nc(N3CCN(c4cccc(C(F)(F)F)c4)CC3)c12`, which activity change, negative = inhibition is on record?
**A.** inactive: -3.41%

**Q.** For `Cc1ccc(C2C=C(c3ccccc3)Nc3nc(NS(=O)(=O)c4ccc(C)cc4)nn32)cc1` (stereo unspecified), which activity change, negative = inhibition is on record?
**A.** inactive: 0.761%

**Q.** For `CCCn1c2ccccc2c2cnn(CC(=O)N(CC)c3cc(C)ccc3C)c(=O)c21`, which activity change, negative = inhibition is on record?
**A.** inactive: -8.52%

**Q.** With `CCCCCOc1ccccc1CN1C(=O)C(=O)c2cc(C)ccc21` as the molecule, how does the activity change, negative = inhibition read?
**A.** inactive: 1.68%

**Q.** Which activity change, negative = inhibition does the source give for `Cc1ccc(NC(=O)c2ccc3c(O)c(S(=O)(=O)c4ccc(Cl)cc4)c(=O)[nH]c3c2)cc1` here?
**A.** inactive: -1.63%

**Q.** For `Cc1cccc(C)c1OCC(=O)N(Cc1ccco1)Cc1ccco1`, which activity change, negative = inhibition is on record?
**A.** inactive: 4.88%

**Q.** With `O=C(CSc1nc2c([nH]c3ccccc32)c(=O)n1-c1ccccc1F)Nc1cccc(C(F)(F)F)c1` as the molecule, how does the activity change, negative = inhibition read?
**A.** inactive: -13%

**Q.** With `CCc1ccccc1-n1cnc2cc(C(=O)NC3CCCCCC3)ccc21` as the molecule, how does the activity change, negative = inhibition read?
**A.** inactive: 2.16%

**Q.** Which activity change, negative = inhibition does the source give for `O=C(c1ccc(F)cc1)c1cn(Cc2ccccc2)c2cc3c(cc2c1=O)OCO3` here?
**A.** inactive: 4.58%

**Q.** With `COc1cccc(C(=O)Nc2nc3nc(-c4ccccc4)cc(=O)n3[nH]2)c1` as the molecule, how does the activity change, negative = inhibition read?
**A.** inactive: -3.1%

**Q.** Which activity change, negative = inhibition does the source give for `CCn1cc(C(=O)NCCc2ccc(OC)c(OC)c2)c(=O)c2cc(S(=O)(=O)N(C)C3CCCCC3)ccc21` here?
**A.** inactive: -16%

**Q.** With `CCn1nc(C)c2c(-c3ccccc3)cc(=O)n(C(C)C(=O)NCc3ccccc3OC)c21` (stereo unspecified) as the molecule, how does the activity change, negative = inhibition read?
**A.** inactive: -9.24%

**Q.** Which activity change, negative = inhibition does the source give for `Cc1cc(-c2ccccc2)n2nc(-c3ccccc3)cc2n1` here?
**A.** inactive: -0.21%

**Q.** Which activity change, negative = inhibition does the source give for `Cc1ccc(NC(=O)N2CCN(c3cc(-c4noc(C)n4)ccc3C)CC2)c(F)c1` here?
**A.** inactive: -1.16%

**Q.** For `CCOc1cc(CNc2ccc(O)cc2)cc(Cl)c1OCc1ccccc1`, which activity change, negative = inhibition is on record?
**A.** inactive: -10.7%

**Q.** Which activity change, negative = inhibition does the source give for `COc1ccccc1OCCSc1nc(-c2ccc(C(C)(C)C)cc2)nc2cc(=O)[nH]n12` here?
**A.** inactive: 8.97%

**Q.** Which activity change, negative = inhibition does the source give for `COc1ccc(CNC(=O)c2cnn3c(C)c(Cc4c(F)cccc4Cl)c(C)nc23)cc1` here?
**A.** inactive: -1.61%

**Q.** With `Cc1ccc(C)c(N(C)C(=O)C2CCN(c3ncnc4c3nc3n4CCCCC3)CC2)c1` as the molecule, how does the activity change, negative = inhibition read?
**A.** inactive: 2.18%

**Q.** For `Cc1cc(C)n2c(Nc3ccc4c(c3)OCCO4)c(-c3ccccc3)nc2n1`, which activity change, negative = inhibition is on record?
**A.** inactive: -0.88%

**Q.** With `Cc1cccc(CN2C(=O)c3ccccc3Sc3ccc(C(=O)N4CCCC4)cc32)c1` as the molecule, how does the activity change, negative = inhibition read?
**A.** inactive: -12%

**Q.** Which activity change, negative = inhibition does the source give for `CCCCN(CC)CCNC(=O)c1cc2c(-c3ccc(Cl)cc3)nn(C)c2s1` here?
**A.** inactive: -5.16%

**Q.** With `COc1ccc(OCCCn2c(=O)oc3ccc(C)cc32)cc1` as the molecule, how does the activity change, negative = inhibition read?
**A.** inactive: -5.37%

**Q.** Which activity change, negative = inhibition does the source give for `CCC(=O)N1CCc2cc(Br)cc(S(=O)(=O)CCC(=O)N(C)c3cccc(C)c3)c21` here?
**A.** inactive: 1.23%

**Q.** For `O=C1CC(c2nc3ccccc3n2CCC2CCCCC2)CN1c1ccccc1Cl` (stereo unspecified), which activity change, negative = inhibition is on record?
**A.** inactive: -1.15%
